Results from article PMC7459565.
These are yes or no findings as the source states them, for the method shown. For some of these results: In cells and extracts the contact can be indirect. Some entries that bind do so weakly or less than the wild type.

Chains of the proteins cited; added tags and fusions are not shown. Lines headed by an entry give the natural chain unless they say otherwise; changes in a name come on top. Residues count along the entry.
UniProt Q02447: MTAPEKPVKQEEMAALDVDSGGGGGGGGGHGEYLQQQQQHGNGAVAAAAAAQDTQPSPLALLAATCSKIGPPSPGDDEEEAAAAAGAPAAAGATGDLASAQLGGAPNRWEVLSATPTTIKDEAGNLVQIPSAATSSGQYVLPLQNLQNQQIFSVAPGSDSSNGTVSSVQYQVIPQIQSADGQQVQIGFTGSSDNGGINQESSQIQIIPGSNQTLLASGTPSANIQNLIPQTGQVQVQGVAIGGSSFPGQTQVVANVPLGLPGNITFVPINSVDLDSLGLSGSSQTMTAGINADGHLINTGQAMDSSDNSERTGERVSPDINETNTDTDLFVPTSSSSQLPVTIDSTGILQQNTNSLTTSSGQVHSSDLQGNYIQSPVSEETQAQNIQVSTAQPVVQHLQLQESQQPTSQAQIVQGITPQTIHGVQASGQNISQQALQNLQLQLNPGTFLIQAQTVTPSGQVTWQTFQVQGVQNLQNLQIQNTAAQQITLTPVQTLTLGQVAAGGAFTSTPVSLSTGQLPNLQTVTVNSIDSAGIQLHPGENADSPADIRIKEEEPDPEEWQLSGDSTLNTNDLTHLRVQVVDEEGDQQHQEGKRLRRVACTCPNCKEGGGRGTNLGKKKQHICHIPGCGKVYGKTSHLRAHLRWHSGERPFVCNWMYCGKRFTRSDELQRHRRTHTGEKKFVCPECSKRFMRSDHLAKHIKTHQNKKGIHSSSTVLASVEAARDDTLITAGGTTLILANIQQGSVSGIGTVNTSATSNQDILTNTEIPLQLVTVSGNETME
UniProt Q06330: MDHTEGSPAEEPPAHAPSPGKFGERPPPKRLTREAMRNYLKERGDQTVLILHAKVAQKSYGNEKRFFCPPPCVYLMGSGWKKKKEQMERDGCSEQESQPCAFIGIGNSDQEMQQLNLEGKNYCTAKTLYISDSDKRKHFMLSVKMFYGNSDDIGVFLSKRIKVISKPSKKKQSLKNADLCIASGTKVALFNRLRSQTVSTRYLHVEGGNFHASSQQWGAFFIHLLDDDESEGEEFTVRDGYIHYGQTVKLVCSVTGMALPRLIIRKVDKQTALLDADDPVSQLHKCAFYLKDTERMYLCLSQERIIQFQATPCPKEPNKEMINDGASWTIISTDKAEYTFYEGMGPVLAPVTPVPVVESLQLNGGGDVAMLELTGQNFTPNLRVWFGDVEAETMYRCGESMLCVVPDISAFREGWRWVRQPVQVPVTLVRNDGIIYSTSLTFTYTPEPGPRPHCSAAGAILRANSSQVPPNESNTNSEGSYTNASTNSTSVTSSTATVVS
UniProt F5HCV3: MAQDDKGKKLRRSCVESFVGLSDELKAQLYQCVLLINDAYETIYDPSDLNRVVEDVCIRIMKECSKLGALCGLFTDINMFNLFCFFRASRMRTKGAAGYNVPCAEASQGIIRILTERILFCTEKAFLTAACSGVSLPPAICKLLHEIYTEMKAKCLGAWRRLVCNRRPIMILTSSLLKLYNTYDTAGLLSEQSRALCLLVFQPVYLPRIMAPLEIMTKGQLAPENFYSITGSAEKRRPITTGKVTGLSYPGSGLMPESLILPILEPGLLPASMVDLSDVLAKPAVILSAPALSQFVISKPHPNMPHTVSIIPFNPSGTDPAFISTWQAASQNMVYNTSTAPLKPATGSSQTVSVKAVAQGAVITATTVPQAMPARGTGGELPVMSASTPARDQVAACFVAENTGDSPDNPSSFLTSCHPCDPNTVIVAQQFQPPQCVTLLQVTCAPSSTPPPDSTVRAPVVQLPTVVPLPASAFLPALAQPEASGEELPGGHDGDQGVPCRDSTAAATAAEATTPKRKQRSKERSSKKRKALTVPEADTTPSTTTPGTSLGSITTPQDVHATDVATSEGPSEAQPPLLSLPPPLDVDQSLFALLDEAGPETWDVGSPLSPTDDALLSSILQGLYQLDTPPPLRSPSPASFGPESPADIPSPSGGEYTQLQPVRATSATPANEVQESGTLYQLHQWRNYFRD
GFP-ORF50(1–590) (Kaposi's sarcoma-associated herpesvirus (KSHV)): residues 1-590 of F5HCV3
GFP-ORF50(1–490) (Kaposi's sarcoma-associated herpesvirus (KSHV)): residues 1-490 of F5HCV3

How the values were obtained:
untagged Sp3 = untagged Sp3 (UniProt Q02447); assay: native gel or EMSA
[1] = target: FLAG-tagged RBP-Jκ (F-RBP-Jκ) (UniProt Q06330); assay: native gel or EMSA
[2] = target: Sp3 (human (endogenous in 293T)) (UniProt Q02447); assay: native gel or EMSA
[3] = target: GFP-ORF50(1–490) (Kaposi's sarcoma-associated herpesvirus (KSHV)) (UniProt F5HCV3); assay: co-IP
[4] = target: GFP-ORF50(1–590) (Kaposi's sarcoma-associated herpesvirus (KSHV)) (UniProt F5HCV3); assay: co-IP

Row | Substance | binding (untagged Sp3) | binding [1] | binding [2] | binding [3] | binding [4]
1 | F-ORF50(1–490) (from UniProt F5HCV3 1-490) (domain or fragment) | binds | binds | binds | – | –
2 | RBP-Jκ (from UniProt Q06330 1-500) | – | – | – | binds | binds
3 | Sp3 (from UniProt Q02447 1-781) | – | – | – | binds | binds
